Laboratory results from publication doi:10.1101/150714.
No constants are given. Whether binding was seen depends on the method and setting.

Biological target: T1, Brc1 fragment 3-4 in pGBKT7 (S. pombe) (UniProt Q10337)
T1 sequence: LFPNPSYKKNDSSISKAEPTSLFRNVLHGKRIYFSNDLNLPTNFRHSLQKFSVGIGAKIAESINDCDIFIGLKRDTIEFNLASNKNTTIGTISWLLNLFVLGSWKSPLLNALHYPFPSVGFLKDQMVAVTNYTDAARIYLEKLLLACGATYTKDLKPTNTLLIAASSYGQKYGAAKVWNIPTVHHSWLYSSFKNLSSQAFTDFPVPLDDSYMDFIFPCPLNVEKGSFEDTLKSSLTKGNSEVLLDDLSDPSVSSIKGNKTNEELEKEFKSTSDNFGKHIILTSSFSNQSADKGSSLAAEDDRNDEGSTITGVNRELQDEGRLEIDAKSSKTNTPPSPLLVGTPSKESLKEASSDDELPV
Assay: two-hybrid

- binding: no binding
B1: full length Rhp18 in pGADT7 (protein, UniProt O74747 1-387)
chain: MNELDATDPSDWNQTKIPSLKGLDSSLRCLICHEYFRAPLITSCSHTFCSFCIRDYLREHPMCPACRAPEQESRLRKNTILEEILESFKVIRPTLFEFLKVENVPKPVLQAPETVIAQDSASGDEEWEDDLASNSSPASIAKKTSRDSKKRKREDLVHCPACSNLVPHNQINQHLDSCLNSPSSPSSSSSPYKNKDNSKSNSLLSFKTDDDSITKRRLRSFNSADELPLKDRVRLPKLTYALLSESKIRSKLSEMGLPTDGHKQLLQRRHAKWVTLYNSNLDQKQPVSKRNLIRQLIDWERVQSKSIGVEKEKLGGGDWEKAYAEDFADLINRAKQSTTNKNDSLRNTAVESSTEPSTSNGFPATSVSPPLTIDLTNSQTGSDGPQS
